In the supplement of paper PMC8732350:
Structures can show the parent of a compound that is named as a salt. ± gives the standard deviation of the averaged measurements. This is one part of the list. Most values lie within the scatter of the assay; repeated measurements hardly agree.

test system: A549; test: surface PD-L1 immunofluorescence intensity relative to IFN-gamma-only control (ratio); higher = more PD-L1 expression; settings: 10 µM; exposure time 24 h; IFN-gamma 100 ng/mL

SMILES	surface PD-L1 immunofluorescence intensity
Cc1ncc(C[n+]2csc(CCO)c2C)c(N)n1 [Thiamine hydrochloride]	0.976
CC(C)c1c(C(=O)Nc2ccccc2)c(-c2ccccc2)c(-c2ccc(F)cc2)n1CC[C@@H](O)C[C@@H](O)CC(=O)O [Atorvastatin]	1.01
CC(=O)OCC(=O)[C@@]1(O)CC[C@H]2[C@@H]3CCC4=CC(=O)CC[C@]4(C)[C@H]3[C@@H](O)C[C@@]21C [Cortisol acetate]	0.908
CCN[C@H]1CN(CCCOC)S(=O)(=O)c2sc(S(N)(=O)=O)cc21 [Brinzolamide]	0.947
CC[N+](C)(CC)CCOC(=O)C1c2ccccc2Oc2ccccc21 [Methantheline bromide]	1.16
O=C(O)CN1C(=O)c2cccc3cccc(c23)C1=O [Alrestatin]	1.05
CCCCN(CCCC)CCCOC(=O)c1ccc(N)cc1 [Butacaine]	0.981
Cc1ccc(C(=O)c2ccc(CC(=O)O)n2C)cc1 [Tolmetin sodium salt dihydrate]	1.02
CC(=O)OCC(=O)[C@@]1(O)CC[C@H]2[C@@H]3CCC4=CC(=O)CC[C@]4(C)[C@@]3(F)[C@@H](O)C[C@@]21C [Fludrocortisone acetate]	0.802
CC(=Cc1ccc(C(=O)O)cc1)c1ccc2c(c1)C(C)(C)CCC2(C)C	1.16 ± 0.2
COc1ccc([C@@H]2CC(=O)c3c(O)cc(O)cc3O2)cc1O [Hesperetin]	1.03
CN(C)CCCN1c2ccccc2Sc2ccc(C(F)(F)F)cc21 [Triflupromazine hydrochloride]	0.891
NC(=O)c1ccc(N(C(N)=O)c2c(F)cccc2F)nc1-c1ccc(F)cc1F	0.992
C[N+]1(C)CCC(OC(=O)C(c2ccccc2)c2ccccc2)CC1	1.07
O=Cc1c2[nH]c3ccccc3c2cc2[nH]c3ccccc3c12 [6-Formylindolo [3,2-B] carbazole]	0.99
CC(=O)Oc1ccccc1C(=O)Nc1ncc([N+](=O)[O-])s1 [Nitazoxanide (Alinia, Annita)]	0.989
CCN(CC)CCOC(=O)C1(C2CCCCC2)CCCCC1 [Dicyclomine hydrochloride]	0.892
CC(N/C(=N\C#N)Nc1ccncc1)C(C)(C)C (configuration not stated) [Pinacidil H2O]	0.977
CC(N/C(=N\C#N)Nc1ccncc1)C(C)(C)C (configuration not stated) [Pinacidil]	0.895
CCCCC(O)c1ccccc1 (configuration not stated) [Fenipentol]	0.952
O=C1c2c(O)cccc2Cc2cccc(O)c21 [Anthralin]	1.08
COc1nccc(-c2c(-c3ccc(F)cc3)ncn2C2CCC(O)CC2)n1 (configuration not stated)	0.968
COc1c(C)c(C(=O)c2ccc(N)c(C(=O)O)c2)n2ccccc12	1.1
COc1ccc2c(c1)CCC1C2CCC2(C)C(NCCCCCCN3C(=O)C=CC3=O)CCC12 (configuration not stated)	1.08

2 entries from above, as labelled records:
CC(=O)OCC(=O)[C@@]1(O)CC[C@H]2[C@@H]3CCC4=CC(=O)CC[C@]4(C)[C@@]3(F)[C@@H](O)C[C@@]21C [Fludrocortisone acetate]
  surface PD-L1 immunofluorescence intensity: 0.802
CC(=Cc1ccc(C(=O)O)cc1)c1ccc2c(c1)C(C)(C)CCC2(C)C
  surface PD-L1 immunofluorescence intensity: 1.16 ± 0.2

(listing goes on)

SMILES	surface PD-L1 immunofluorescence intensity
CC(C)C[C@H](NP(=O)(O)O[C@@H]1O[C@@H](C)[C@H](O)[C@@H](O)[C@H]1O)C(=O)N[C@@H](Cc1c[nH]c2ccccc12)C(=O)O [Phosphoramidon]	0.883
COc1cc(C(=O)OCCCN2CCCN(CCCOC(=O)c3cc(OC)c(OC)c(OC)c3)CC2)cc(OC)c1OC [Dilazep dihydrochloride]	0.902 ± 0.13
COC(=O)C1=C(C)NC(C)=C([N+](=O)[O-])C1c1ccccc1C(F)(F)F (configuration not stated)	0.958
O/N=C/c1ccc(-c2ccc(O)c(F)c2)c(Cl)c1O	1.07
C[C@@H]1C[C@H]2[C@@H]3C[C@H](F)C4=CC(=O)C=C[C@]4(C)[C@@]3(F)[C@@H](O)C[C@]2(C)[C@@]1(O)C(=O)CO [Flumethasone]	0.812
O=C(O)c1ccc(O)c(O)c1 [Protocatechuic acid]	0.924
O=C(NC[C@H]1CN(c2ccc(N3CCOCC3=O)cc2)C(=O)O1)c1ccc(Cl)s1 [Rivaroxaban (Xarelto)]	1.01
O=C(O)Cc1ccc(-c2ccccc2)cc1 [Felbinac]	1.06
Cc1cc2c(cc1CC(=O)c1sccc1S(=O)(=O)Nc1onc(C)c1Cl)OCO2	0.985
O=C(O)c1cn(-c2ccc(F)cc2)c2cc(N3CCNCC3)c(F)cc2c1=O [Sarafloxacin]	0.949
COc1cccc(/C=N/N=C/c2cccc(OC)c2)c1	1.08
CC[C@H](/C=C/[C@@H](C)[C@H]1CC[C@H]2[C@@H]3CC=C4C[C@@H](O)CC[C@]4(C)[C@H]3CC[C@]12C)C(C)C [Stigmasterol (Stigmasterin)]	1.15
c1ccc(NCc2ccc(CNc3ccccn3)cc2)nc1	0.966
Cc1nnc(C(=O)NC(C)(C)c2nc(C(=O)NCc3ccc(F)cc3)c(O)c(=O)n2C)o1 [Raltegravir (MK-0518)]	1.04
COc1c2occc2cc2ccc(=O)oc12 [Methoxsalen (Oxsoralen)]	0.888
NCc1ccccc1CC(=O)N[C@@H]1C(=O)N2C(C(=O)O)=C(CSc3nnnn3CC(=O)O)CS[C@H]12 [Ceforanide]	1.04
CN1CCN(C2=Nc3ccccc3Oc3ccc(Cl)cc32)CC1 [Loxapine succinate]	0.895
C[N+]1(C)CCC(OC(=O)C(O)(c2ccccc2)C2CCCC2)C1 (configuration not stated) [Glycopyrrolate]	1.01
O=C(Nc1cccc(Cl)c1)c1ccccn1	0.968
Clc1ccc(CCC(Cn2ccnc2)Sc2c(Cl)cccc2Cl)cc1 (configuration not stated) [Butoconazole nitrate]	1.03
C[C@@]1(C(=O)Nc2ccc(F)nc2)CCCN1c1nc(Nc2cc(C3CC3)n[nH]2)c2cccn2n1	0.929
N[C@H](C(=O)O)c1ccc(O)c(C(=O)O)c1 [(S)-3-Carboxy-4-hydroxyphenylglycine]	1.1
N#Cc1ccc(C(c2ccc(C#N)cc2)n2cncn2)cc1 [Letrozole]	0.939
